Measured values: the supplement of paper PMC10849652
The list shows a part of the results.

Amino acid sequences for entries named in this document (tags omitted). A change or cut given only in a name is not applied to a line headed by its entry.
UniProt Q6P1R3: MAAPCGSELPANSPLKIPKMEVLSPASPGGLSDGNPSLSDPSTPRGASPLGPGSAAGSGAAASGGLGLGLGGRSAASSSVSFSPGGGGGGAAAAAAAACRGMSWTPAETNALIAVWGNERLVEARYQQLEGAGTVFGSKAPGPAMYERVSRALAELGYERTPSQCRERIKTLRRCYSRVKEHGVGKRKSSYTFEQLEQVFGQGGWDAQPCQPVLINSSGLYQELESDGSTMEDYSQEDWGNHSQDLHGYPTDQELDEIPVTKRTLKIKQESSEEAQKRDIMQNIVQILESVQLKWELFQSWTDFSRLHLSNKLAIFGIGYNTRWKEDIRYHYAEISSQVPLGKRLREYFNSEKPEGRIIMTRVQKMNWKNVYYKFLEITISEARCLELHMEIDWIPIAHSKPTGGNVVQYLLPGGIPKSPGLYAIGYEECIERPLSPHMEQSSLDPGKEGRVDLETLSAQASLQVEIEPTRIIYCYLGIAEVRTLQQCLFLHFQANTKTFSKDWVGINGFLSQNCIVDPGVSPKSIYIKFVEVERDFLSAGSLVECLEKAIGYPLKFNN
UniProt P03897, whole entry, looked up: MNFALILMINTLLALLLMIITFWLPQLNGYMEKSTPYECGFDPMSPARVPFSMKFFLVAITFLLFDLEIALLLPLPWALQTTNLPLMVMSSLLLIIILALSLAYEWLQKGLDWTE
UniProt P00156: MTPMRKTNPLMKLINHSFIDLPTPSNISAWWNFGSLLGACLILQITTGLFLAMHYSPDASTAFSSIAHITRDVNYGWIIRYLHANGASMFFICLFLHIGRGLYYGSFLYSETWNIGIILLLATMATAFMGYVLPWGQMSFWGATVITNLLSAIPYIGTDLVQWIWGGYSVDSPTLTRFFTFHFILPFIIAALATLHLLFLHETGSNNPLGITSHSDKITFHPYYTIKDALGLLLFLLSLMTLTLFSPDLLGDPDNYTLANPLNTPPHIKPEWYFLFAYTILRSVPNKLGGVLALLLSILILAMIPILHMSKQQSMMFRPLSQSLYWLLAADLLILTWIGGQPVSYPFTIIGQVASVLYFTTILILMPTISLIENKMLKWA
UniProt P03923, whole entry, looked up: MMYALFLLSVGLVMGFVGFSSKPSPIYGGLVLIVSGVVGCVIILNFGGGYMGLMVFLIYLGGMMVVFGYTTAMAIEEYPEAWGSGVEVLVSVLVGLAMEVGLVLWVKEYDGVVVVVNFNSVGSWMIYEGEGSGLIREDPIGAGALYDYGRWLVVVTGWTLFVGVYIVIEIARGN
UniProt Q9UJ68: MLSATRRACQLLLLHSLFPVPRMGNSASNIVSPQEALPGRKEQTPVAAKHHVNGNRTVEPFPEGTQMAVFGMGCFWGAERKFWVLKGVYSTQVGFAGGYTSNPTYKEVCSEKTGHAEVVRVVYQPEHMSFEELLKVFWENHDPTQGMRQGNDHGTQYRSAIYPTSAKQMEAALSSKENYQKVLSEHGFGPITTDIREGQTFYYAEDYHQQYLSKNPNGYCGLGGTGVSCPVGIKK
UniProt Q49AM1: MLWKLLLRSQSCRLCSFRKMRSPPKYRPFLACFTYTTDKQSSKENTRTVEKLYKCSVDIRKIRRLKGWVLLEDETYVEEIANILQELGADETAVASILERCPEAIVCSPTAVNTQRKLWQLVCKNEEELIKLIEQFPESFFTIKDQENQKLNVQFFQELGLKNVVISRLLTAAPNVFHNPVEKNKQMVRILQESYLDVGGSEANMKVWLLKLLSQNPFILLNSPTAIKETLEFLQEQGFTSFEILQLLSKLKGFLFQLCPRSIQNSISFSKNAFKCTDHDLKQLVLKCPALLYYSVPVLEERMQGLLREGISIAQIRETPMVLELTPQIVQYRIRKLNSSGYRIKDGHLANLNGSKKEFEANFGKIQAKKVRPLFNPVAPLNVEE
UniProt O43196: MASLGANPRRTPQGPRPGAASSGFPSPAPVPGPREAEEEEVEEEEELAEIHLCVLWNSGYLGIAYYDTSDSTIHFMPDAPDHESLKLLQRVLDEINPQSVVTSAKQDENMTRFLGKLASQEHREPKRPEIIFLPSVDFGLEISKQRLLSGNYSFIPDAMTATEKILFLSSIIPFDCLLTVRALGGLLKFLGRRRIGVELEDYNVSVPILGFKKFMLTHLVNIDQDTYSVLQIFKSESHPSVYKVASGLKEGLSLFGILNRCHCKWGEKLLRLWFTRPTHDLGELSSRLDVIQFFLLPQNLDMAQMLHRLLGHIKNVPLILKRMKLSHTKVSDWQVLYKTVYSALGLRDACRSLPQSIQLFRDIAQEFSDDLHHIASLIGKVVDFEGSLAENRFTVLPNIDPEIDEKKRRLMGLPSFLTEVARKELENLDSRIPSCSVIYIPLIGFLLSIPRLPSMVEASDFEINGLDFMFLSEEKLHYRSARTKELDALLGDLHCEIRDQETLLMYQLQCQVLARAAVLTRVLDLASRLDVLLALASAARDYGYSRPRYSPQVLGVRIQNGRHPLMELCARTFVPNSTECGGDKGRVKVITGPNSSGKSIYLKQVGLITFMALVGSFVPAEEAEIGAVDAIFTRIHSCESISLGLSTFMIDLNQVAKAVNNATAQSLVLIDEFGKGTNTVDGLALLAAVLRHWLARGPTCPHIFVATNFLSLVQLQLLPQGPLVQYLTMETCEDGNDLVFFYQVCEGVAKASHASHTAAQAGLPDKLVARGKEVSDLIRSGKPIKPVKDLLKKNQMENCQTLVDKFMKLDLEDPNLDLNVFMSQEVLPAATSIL
UniProt P03915, whole entry, looked up: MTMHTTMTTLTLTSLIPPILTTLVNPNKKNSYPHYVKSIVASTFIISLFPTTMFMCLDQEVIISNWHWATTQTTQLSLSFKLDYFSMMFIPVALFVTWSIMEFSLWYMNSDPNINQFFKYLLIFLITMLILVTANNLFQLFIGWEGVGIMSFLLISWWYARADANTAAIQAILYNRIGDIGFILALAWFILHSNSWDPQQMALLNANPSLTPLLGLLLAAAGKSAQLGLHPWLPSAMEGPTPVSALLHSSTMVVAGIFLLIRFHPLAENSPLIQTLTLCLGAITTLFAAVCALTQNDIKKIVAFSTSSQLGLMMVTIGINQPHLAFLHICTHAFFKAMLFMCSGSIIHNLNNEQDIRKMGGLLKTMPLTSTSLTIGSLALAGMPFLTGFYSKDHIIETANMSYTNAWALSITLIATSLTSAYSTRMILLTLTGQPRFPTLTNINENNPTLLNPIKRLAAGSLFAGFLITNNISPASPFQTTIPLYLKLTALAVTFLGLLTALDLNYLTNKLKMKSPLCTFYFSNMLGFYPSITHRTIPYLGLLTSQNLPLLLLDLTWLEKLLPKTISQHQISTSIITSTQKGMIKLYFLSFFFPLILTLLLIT
UniProt Q15390: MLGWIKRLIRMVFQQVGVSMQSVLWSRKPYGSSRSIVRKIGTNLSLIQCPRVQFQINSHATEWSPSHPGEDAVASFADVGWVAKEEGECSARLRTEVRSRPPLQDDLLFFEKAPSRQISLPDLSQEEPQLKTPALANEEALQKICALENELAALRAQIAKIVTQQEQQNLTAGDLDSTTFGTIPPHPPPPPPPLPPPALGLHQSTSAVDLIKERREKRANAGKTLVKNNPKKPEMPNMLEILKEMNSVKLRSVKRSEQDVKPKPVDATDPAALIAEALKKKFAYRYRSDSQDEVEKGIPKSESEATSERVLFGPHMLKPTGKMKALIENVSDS
UniProt Q2M296: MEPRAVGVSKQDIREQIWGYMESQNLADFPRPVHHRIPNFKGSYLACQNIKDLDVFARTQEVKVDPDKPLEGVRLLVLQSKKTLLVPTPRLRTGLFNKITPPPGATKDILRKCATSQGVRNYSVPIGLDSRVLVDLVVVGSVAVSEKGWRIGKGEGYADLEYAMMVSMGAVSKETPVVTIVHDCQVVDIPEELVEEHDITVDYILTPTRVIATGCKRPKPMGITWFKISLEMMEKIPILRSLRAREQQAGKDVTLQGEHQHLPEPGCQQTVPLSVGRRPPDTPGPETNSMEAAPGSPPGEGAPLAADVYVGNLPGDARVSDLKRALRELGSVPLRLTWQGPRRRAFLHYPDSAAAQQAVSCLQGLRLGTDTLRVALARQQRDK

How the values were obtained:
Assay in all cases: log2 fold change, soluble protein after heating vs DMSO (PISA); higher = thermal stabilisation; K562 lysate, 10 uM; active = over 0.2 and 3.5 SD of the protein, either way, in both replicates (recomputed)
[1] = compound: NCC(=O)Nc1ccc(-n2nc(C(F)(F)F)cc2-c2ccc3c(ccc4ccccc43)c2)cc1
Summary of the method: (§1)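 Dounce homogenisation of K562 pellets in PBS pH 7.4 with 1 mM MgCl2 produced a crude extract, used at 1 mg/mL protein. Exposure to 10 μM compound lasted 30 min, and aliquots were then heated for 3 min across 48°C-58°C, pooled and brought to 0.5% NP-40 at 4°C. The supernatant after 21,000xg for 90 min was quantified by TMTpro 16plex LC-MS/MS with channel sums equalised. Duplicate values are given as log-two fold change in thermal stability relative to solvent controls.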

vorinostat = compound: O=C(CCCCCCC(=O)Nc1ccccc1)NO [vorinostat]
Summary of the method: as §1

silmitasertib = compound: O=C(O)c1ccc2c(c1)nc(Nc1cccc(Cl)c1)c1ccncc12 [silmitasertib]
Summary of the method: as §1

[2] = compound: O=C1NC(=O)C(c2cnc3ccccn23)=C1c1cn2c3c(cc(F)cc13)CN(C(=O)N1CCCCC1)CC2
Summary of the method: as §1

entospletinib = compound: c1cn2cc(-c3ccc4cn[nH]c4c3)nc(Nc3ccc(N4CCOCC4)cc3)c2n1 [entospletinib]
Summary of the method: as §1

Measured: log2 fold change

MRPL41 (UniProt Q8IXM3)
inactive: [1] 0.013 | vorinostat 0.006 | silmitasertib -0.041 | [2] -0.076 | entospletinib 0.016

MRPL27 (UniProt Q9P0M9)
inactive: vorinostat 0.087 | silmitasertib 0.106 | [2] -0.008 | entospletinib -0.027

MSANTD2 (UniProt Q6P1R3)
inactive: [1] -0.117 | vorinostat -0.44 | silmitasertib 0.144 | [2] 0.023 | entospletinib -0.067

MT-ND3 (UniProt P03897)
inactive: vorinostat -0.351 | silmitasertib 0.119 | [2] -0.139 | entospletinib 0.096

MRPS33 (UniProt Q9Y291)
inactive: [1] 0.034 | vorinostat -0.047 | silmitasertib -0.048 | [2] -0.061 | entospletinib -0.016

MT-CYB (UniProt P00156)
inactive: [1] -0.064 | vorinostat 0.158 | silmitasertib 0.031 | [2] 0.118 | entospletinib 0.174

MT-ND6 (UniProt P03923)
inactive: vorinostat 0.145 | silmitasertib -0.004 | [2] -0.034

MRPL34 (UniProt Q9BQ48)
inactive: [2] 0.054 | entospletinib -0.242

MSRA (UniProt Q9UJ68)
inactive: entospletinib -0.032

MTERF2 (UniProt Q49AM1)
inactive: vorinostat 0.113 | silmitasertib 0.047 | [2] 0.159 | entospletinib -0.087

MSH5 isoform 3 (UniProt O43196)
inactive: [2] -0.105 | entospletinib -0.217

MRPS34 (UniProt P82930)
inactive: [1] -0.035 | vorinostat -0.32 | silmitasertib -0.004 | [2] 0.009 | entospletinib -0.02

MT-ND5 (UniProt P03915)
inactive: [1] 0.063 | vorinostat 0.136 | silmitasertib -0.021 | [2] 0.03 | entospletinib 0.004

MTFR1 (UniProt Q15390)
inactive: [1] -0.01 | vorinostat -0.014 | silmitasertib -0.016 | [2] 0.011 | entospletinib 0.018

Quoted at random: 2 entries already listed, in no set order.
MRPS34 (UniProt P82930)
inactive: [1] -0.035 | vorinostat -0.32 | silmitasertib -0.004 | [2] 0.009 | entospletinib -0.02

MTERF2 (UniProt Q49AM1)
inactive: vorinostat 0.113 | silmitasertib 0.047 | [2] 0.159 | entospletinib -0.087

Remaining list, next part

MRPL30 isoform 2 (UniProt Q8TCC3)
inactive: vorinostat 0.041 | silmitasertib -0.023 | [2] -0.012 | entospletinib -0.046

MTHFSD (UniProt Q2M296)
inactive: vorinostat -0.008 | silmitasertib -0.088 | [2] 0.032 | entospletinib 0.081
